Experimental data from paper PMC9484707.

Protein sequences, listed by entry. Tags and fused reporters are not part of them. Residues count along the entry.
UniProt A6QG59, residues 30-165: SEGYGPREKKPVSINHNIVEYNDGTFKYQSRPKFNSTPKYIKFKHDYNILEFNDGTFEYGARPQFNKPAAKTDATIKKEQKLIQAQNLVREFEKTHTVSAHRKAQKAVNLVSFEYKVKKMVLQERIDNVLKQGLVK
UniProt Q9Y508: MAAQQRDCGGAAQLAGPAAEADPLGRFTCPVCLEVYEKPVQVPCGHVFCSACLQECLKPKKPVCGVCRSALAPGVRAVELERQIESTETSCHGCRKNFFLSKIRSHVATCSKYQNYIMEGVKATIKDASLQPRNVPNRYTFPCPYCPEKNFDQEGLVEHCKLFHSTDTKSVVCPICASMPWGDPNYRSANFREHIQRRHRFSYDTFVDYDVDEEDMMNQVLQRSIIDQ

Molecular target: extracellular fibrinogen-binding protein (Efb), overexpressed in HEK293T cells (Staphylococcus aureus) (UniProt A6QG59)
Test: affinity purification with mass spectrometry; immunoprecipitated overexpressed Efb from HEK293T cells; MS/MS on Q Exactive Plus coupled to UPLC

Substance: RNF114, endogenous in HEK293T cells (from UniProt Q9Y508 1-228) (enzyme)
- binding: binds

No constants are given. Whether binding was seen depends on the method and setting. In cells and extracts the contact can be indirect. Here binding means that the protein was enriched with, or labelled near, the bait; the list need not be complete.
